Source: PMC7819943, “Rice protein-binding microarrays: a tool to detect cis-acting elements near promoter regions in rice”
The list shows a part of the results.

These sequences were tested against T1, OsSMF1 (Oryza sativa, UniProt Q6ZLB0 1-436) (assay: protein-binding microarray (RPBM); PBS, 2% BSA, 51.3 ng/ul salmon testes DNA, 50 uM zinc acetate, 200 nM TF, 25 C, 1 h; high values mean tight binding). Conditions: protein: recombinant; tags: N-terminal polyhistidine and DsRed monomer fusion (pET32a); chain copies: 2; label: CyDye5-dUTP incorporated in the synthesized complementary strand; 3' TTTTT single-stranded linker to array surface; dsDNA, one strand shown.
T1 sequence: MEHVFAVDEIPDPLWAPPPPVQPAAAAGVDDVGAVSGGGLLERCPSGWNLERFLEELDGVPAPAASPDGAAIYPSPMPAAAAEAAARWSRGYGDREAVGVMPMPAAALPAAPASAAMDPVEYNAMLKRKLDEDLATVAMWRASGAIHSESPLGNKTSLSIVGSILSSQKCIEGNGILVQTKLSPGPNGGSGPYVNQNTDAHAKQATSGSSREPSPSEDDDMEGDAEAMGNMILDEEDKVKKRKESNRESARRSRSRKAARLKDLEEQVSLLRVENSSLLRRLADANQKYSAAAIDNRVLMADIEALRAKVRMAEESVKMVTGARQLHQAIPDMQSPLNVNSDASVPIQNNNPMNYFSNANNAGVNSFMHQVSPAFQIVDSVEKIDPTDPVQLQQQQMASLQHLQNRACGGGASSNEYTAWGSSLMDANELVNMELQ
Outline: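 Per-feature fluorescence intensity (arbitrary units), read on an Axon 4000B scanner, is the binding signal. Transcription factors carrying an N-terminal polyhistidine tag and DsRed fusion were expressed in E. coli BL21-CodonPlus and purified on Ni–NTA. A custom Agilent array, made double-stranded by primer extension with Cy5-dUTP and blocked with 2% BSA, was incubated with 200 nM protein in PBS, 2% BSA, salmon testes DNA and 50 µM zinc acetate at 25 °C for 1 h and then washed.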

Sequence	binding signal
CGGCGAAAATGACGTGGCAGACGGCCGTTCGCTCTCGGGCCGGAGTCACCTAGTGCAG	24500 fluorescence intensity (a.u.)
AACGATTAGTGGCCTAATCATACGATTAGAAAGTTCTCATCGGAGTCACCTAGTGCAG	3200 fluorescence intensity (a.u.)
TGCCGTGCCAACTGAGCACCCACGTTGCATCACCGCTTACCGGAGTCACCTAGTGCAG	4430 fluorescence intensity (a.u.)
ACCCAAAACCCTCCCCTCTCTCTCTCGCCTCACCACCGCCCGGAGTCACCTAGTGCAG	10600 fluorescence intensity (a.u.)
TCGCCATTGTCTCATGATTCGGTCCATGGTGTCAAGCGTGCGGAGTCACCTAGTGCAG	4010 fluorescence intensity (a.u.)
TCCTCCCCGCACGCGCACGTCGGCGAGAAGGTCTGGTGGGCGGAGTCACCTAGTGCAG	3940 fluorescence intensity (a.u.)
TCCATTAGTCGCAACTGCCATGCATGATTCTGCACCTTGACGGAGTCACCTAGTGCAG	3460 fluorescence intensity (a.u.)
GACACGCCACATGATTTTATTGATCGGTACACGCTGCAAGCGGAGTCACCTAGTGCAG	3430 fluorescence intensity (a.u.)
AATACTGAATACTAGTGCAACGTCATTGAAAATTTTATCCCGGAGTCACCTAGTGCAG	5090 fluorescence intensity (a.u.)
TCCGTGATAATATATACACACACTACACGTAGGGTGCGTTCGGAGTCACCTAGTGCAG	4600 fluorescence intensity (a.u.)
TGTTTTCAGAGTTGGCATTTTGCTGTTGAGTTGCATTCCTCGGAGTCACCTAGTGCAG	3730 fluorescence intensity (a.u.)
GCTACAGCACGGACCACAAGATGCATGTGTGTATCATACGCGGAGTCACCTAGTGCAG	3840 fluorescence intensity (a.u.)
AACGGGATATATGATGAAACCACGTCGGCCAGTTTGATCGCGGAGTCACCTAGTGCAG	8340 fluorescence intensity (a.u.)
GACCCCGGTTTTGTCCCACGTGGCGGCTGACTCAGCGTGGCGGAGTCACCTAGTGCAG	22500 fluorescence intensity (a.u.)
ACCTTAATGGACACATCATGCCCAACTAAATCCATATTTGCGGAGTCACCTAGTGCAG	4460 fluorescence intensity (a.u.)
TGATTAACGTAGGACAGTGACATGTACACCAACTAGTCGTCGGAGTCACCTAGTGCAG	4560 fluorescence intensity (a.u.)
CGAATCATCCTTTCACGCTTAGCTGGATTATGTGACAGCCCGGAGTCACCTAGTGCAG	3630 fluorescence intensity (a.u.)
CCGCGCTCACCTGCCGGGCGTGGCGCGCCGCGGTGGCCTCCGGAGTCACCTAGTGCAG	3140 fluorescence intensity (a.u.)
CGCGCGAGCAACCACCACCTCCACATCGCTTCACGTAGACCGGAGTCACCTAGTGCAG	3770 fluorescence intensity (a.u.)
GCGCGTGCGAGTCCGCCACGTCCCCTCGAATGTTCGATATCGGAGTCACCTAGTGCAG	6290 fluorescence intensity (a.u.)
ATACTACGATGTTGATTTCGCTGACATTGTGCATCGACGTCGGAGTCACCTAGTGCAG	13400 fluorescence intensity (a.u.)

Sequence	binding signal
TCTGAGTTACTTCCAAGTTGACTAGTTACCTCTTACTACCCGGAGTCACCTAGTGCAG	3260 fluorescence intensity (a.u.)
GGACTTTCTACCGTCATTATCATTGTCATTGACTAGCATGCGGAGTCACCTAGTGCAG	4080 fluorescence intensity (a.u.)
GGTTTTATCTGACGTGGCGGCTGAGTCAGCGTGGGCCCCACGGAGTCACCTAGTGCAG	26700 fluorescence intensity (a.u.)
GAGGTTCCTGGGATTAAATAACAAACGGGCCGCGTCACATCGGAGTCACCTAGTGCAG	5760 fluorescence intensity (a.u.)
TAGTAGTATTGTACAATGTTTATTTGATAGAGTATATACGCGGAGTCACCTAGTGCAG	3490 fluorescence intensity (a.u.)
ATACAGTAAATATTTGCTAATGACGGATTAATTAGGCTTACGGAGTCACCTAGTGCAG	3790 fluorescence intensity (a.u.)
GGCTAGCTAGCTAGCTTGCCATATCGACTCGTCCGTTCCTCGGAGTCACCTAGTGCAG	3360 fluorescence intensity (a.u.)
GGCAGTGGAAAGTGGCAGTTCTGACCACATTCCCTACACCCGGAGTCACCTAGTGCAG	3640 fluorescence intensity (a.u.)
ACCCGCGCCGGCCGGCAGGGCGTCGCCGTCGACGTCGTCGCGGAGTCACCTAGTGCAG	3980 fluorescence intensity (a.u.)
CGGAGAGACTAAATAATAAATGAGATGCCTATCACGACCGCGGAGTCACCTAGTGCAG	3450 fluorescence intensity (a.u.)
TCGCTCGCTCGCCTGCCAAATCTGCATTGGTGCTAGGAGGCGGAGTCACCTAGTGCAG	3730 fluorescence intensity (a.u.)
CCGGCCGTTGGGAGCCACGTCAGCCGGCGGCCTCCGCCTTCGGAGTCACCTAGTGCAG	13100 fluorescence intensity (a.u.)
GTATACTGACTTGATGAGCTCTGACTGCTCATGCCATAATCGGAGTCACCTAGTGCAG	3350 fluorescence intensity (a.u.)
TTAACCAAACCACGACGAAAGCAGGTTAGGTCGCGGCAGGCGGAGTCACCTAGTGCAG	3380 fluorescence intensity (a.u.)
GGGTCCGGGTGTGTGGGGTGGGGAAGCGAGGCGAAACCCGCGGAGTCACCTAGTGCAG	3940 fluorescence intensity (a.u.)
TCTGTGCCACTCGATCTGTCATCGCCGAGCGCATCCACAGCGGAGTCACCTAGTGCAG	4400 fluorescence intensity (a.u.)
AGGATCCGGTTCAATGTTCAGGAGATGTTGTCATTTTCGGCGGAGTCACCTAGTGCAG	4420 fluorescence intensity (a.u.)
TCGAGCAGCACTATGCCGCCACGCCAAGAGAACTTCAGCTCGGAGTCACCTAGTGCAG	3400 fluorescence intensity (a.u.)
CAACTATGAGGAAACCCTTGTTGAAAGATGGCAAGATAGCCGGAGTCACCTAGTGCAG	26800 fluorescence intensity (a.u.)
TGGTGCTGTGGTGGTGGTGGTCATGGACTCATTGGGCATGCGGAGTCACCTAGTGCAG	3180 fluorescence intensity (a.u.)
TAAACTCTTTCTGTGAGTCAGCACAATAGCCCATCGTGCCCGGAGTCACCTAGTGCAG	18700 fluorescence intensity (a.u.)

Sequence	binding signal
CCCACCAGCCGCCTCGCCGGCCGCCGCCGCGGGCGCCTCCCGGAGTCACCTAGTGCAG	6350 fluorescence intensity (a.u.)
GTTCCAGAGCACACAAGTGACTAGGACAGTGGCGAAGCGCCGGAGTCACCTAGTGCAG	3720 fluorescence intensity (a.u.)
CAACCACAACACCGTCTTCTTCGACGTCAACATGCGCGCCCGGAGTCACCTAGTGCAG	4530 fluorescence intensity (a.u.)
ACTTTTCTTAGTTTCCACGTCGCAGTTTCTCTTCTCTCCTCGGAGTCACCTAGTGCAG	6280 fluorescence intensity (a.u.)
CTCTCTATCATTCTCCGTTGCCACGCTAATCGCTCAGCGCCGGAGTCACCTAGTGCAG	3870 fluorescence intensity (a.u.)
AAACGCTATAAAAGGCGGCGGTGCCTTTCTCCTTCATCCGCGGAGTCACCTAGTGCAG	3170 fluorescence intensity (a.u.)
AGACTCCTCAATAGGTCCTGGATCAGCACGTGACTCGCAACGGAGTCACCTAGTGCAG	4030 fluorescence intensity (a.u.)
GGCGGAGGCGGTGGATCGGGCGCGCCAGGCCATGTCGCAGCGGAGTCACCTAGTGCAG	26800 fluorescence intensity (a.u.)
ATGTTTTCTAGACTAATATACTATTAATCTATCTTTTATCCGGAGTCACCTAGTGCAG	36400 fluorescence intensity (a.u.)
TCCCGAGGGCAAAGTCTCCGATTCATTCAGGTCCGACTCGCGGAGTCACCTAGTGCAG	3210 fluorescence intensity (a.u.)
GATGATGCGTGTGTTGTATTCCATCATCATCAGGTAGCGCCGGAGTCACCTAGTGCAG	3400 fluorescence intensity (a.u.)
AACCTGATCCGTCCACGGTGTAAAAGCGCGAGCAGCGGTGCGGAGTCACCTAGTGCAG	3680 fluorescence intensity (a.u.)
AGAAAGCGTACGCCTTGACAAGTCCCTATCGTCACGCCACCGGAGTCACCTAGTGCAG	4080 fluorescence intensity (a.u.)
ATAGAGTGTGGGCCACGCCTGCGAAACCTAATGAGGAACTCGGAGTCACCTAGTGCAG	36800 fluorescence intensity (a.u.)
CATGACTTGGATAAATTAGCGTCATCTTTGTCCCCAATGCCGGAGTCACCTAGTGCAG	5280 fluorescence intensity (a.u.)
ATCTCGATCTGGACGGTACAGAAACGTGTCACGCCTCTCCCGGAGTCACCTAGTGCAG	4710 fluorescence intensity (a.u.)
ACAACATGCATCTACTATGACACACACAACTTCAGATCAACGGAGTCACCTAGTGCAG	4630 fluorescence intensity (a.u.)
TTTCCGAGACTGTTATTGTGCAACACGTCAAGGATACCATCGGAGTCACCTAGTGCAG	4760 fluorescence intensity (a.u.)
AACTATAGCCTAGATTCATAGTATATTAGCTGACATGATACGGAGTCACCTAGTGCAG	3190 fluorescence intensity (a.u.)
AGATCGAGATGCCACATCACCATCCGATGTGGAGGCGCTGCGGAGTCACCTAGTGCAG	18800 fluorescence intensity (a.u.)
CCACTGCTTCGTCATCGTCTACGCCCTCCTCATCGTCCACCGGAGTCACCTAGTGCAG	7240 fluorescence intensity (a.u.)

Sequence	binding signal
ACCCTTAATCTTTTAAGTTGTACTCTCTATGGTCATAAATCGGAGTCACCTAGTGCAG	12800 fluorescence intensity (a.u.)
CGAAGCCCACGCAGATGCTGACGCAGCGCAGGCGTGGCGACGGAGTCACCTAGTGCAG	8280 fluorescence intensity (a.u.)
CTTGCTCGGTTTCTTTCTCCCGCGGACACTGAAACCCAACCGGAGTCACCTAGTGCAG	3310 fluorescence intensity (a.u.)
CCTGTTACCCCAAACGCGTTACCCCAAGCCAATAGACGAACGGAGTCACCTAGTGCAG	3220 fluorescence intensity (a.u.)
CCTCATAGTCGCAGCCGCCACGCACAGGCAGAAGAGCTTGCGGAGTCACCTAGTGCAG	3340 fluorescence intensity (a.u.)
ACTTTGGTCAATCCTCAGCGTGGCACATGCCTTCAATTGGCGGAGTCACCTAGTGCAG	3630 fluorescence intensity (a.u.)
GGGGCACGAGCATGGCGGAGGACACATCAGCAGTCGATGGCGGAGTCACCTAGTGCAG	9360 fluorescence intensity (a.u.)
ATGGGCCCCGCTACATTGATTGGGCCACGTTGGGTCTTGGCGGAGTCACCTAGTGCAG	5830 fluorescence intensity (a.u.)
GTCCATCGCCGCGACCCACGCCACCACCGTTACGGACATCCGGAGTCACCTAGTGCAG	3370 fluorescence intensity (a.u.)
AGGAGGAGGAGGGAGAAAGGTGATGTCAGCGGAGGAGGAGCGGAGTCACCTAGTGCAG	4140 fluorescence intensity (a.u.)
AACAGGCATCCTGATGTTGTAACTTATACTGTTGTTGTTGCGGAGTCACCTAGTGCAG	4250 fluorescence intensity (a.u.)
TAGCCAGGAGGGAGGTGGCAAAACAGAATGATGGGAGGGACGGAGTCACCTAGTGCAG	3220 fluorescence intensity (a.u.)
TGCGGCGTGACGCGCTCGTTCAAACCTGCAATAAATGCGGCGGAGTCACCTAGTGCAG	4750 fluorescence intensity (a.u.)
CCTTGTACTGGTGCGTGTCACATCCTAATATAATATTTGTCGGAGTCACCTAGTGCAG	3990 fluorescence intensity (a.u.)
AGATAAAATGAGTAATCATCTGTCTAACATGTCACACCAGCGGAGTCACCTAGTGCAG	3140 fluorescence intensity (a.u.)
GTCAAGCGCCGCCTCGCCGCGTCGGGCCGCCCCGACGACGCGGAGTCACCTAGTGCAG	3700 fluorescence intensity (a.u.)
ATATGCATGAGTGTGGTGTGTACATATGCATCATCCGTGTCGGAGTCACCTAGTGCAG	4580 fluorescence intensity (a.u.)
TCGTTTCATCCTGCTGTCACCACGTAGTAACTCGTTTTCCCGGAGTCACCTAGTGCAG	3390 fluorescence intensity (a.u.)
CTCCAACCACCCCTAGACACGTGTCCAGAGAATCTCTAACCGGAGTCACCTAGTGCAG	9780 fluorescence intensity (a.u.)
GATTATTGAGTCATATTACTATAAACTTGATTGTTATAATCGGAGTCACCTAGTGCAG	3420 fluorescence intensity (a.u.)
CTATGGAACGAAATACTGACGTGTCAGGGATGCATGTGAACGGAGTCACCTAGTGCAG	6700 fluorescence intensity (a.u.)

A stretch taken from the entries so far, for reference:
Sequence	binding signal
CCTTGTACTGGTGCGTGTCACATCCTAATATAATATTTGTCGGAGTCACCTAGTGCAG	3990 fluorescence intensity (a.u.)
AGATAAAATGAGTAATCATCTGTCTAACATGTCACACCAGCGGAGTCACCTAGTGCAG	3140 fluorescence intensity (a.u.)
GTCAAGCGCCGCCTCGCCGCGTCGGGCCGCCCCGACGACGCGGAGTCACCTAGTGCAG	3700 fluorescence intensity (a.u.)
ATATGCATGAGTGTGGTGTGTACATATGCATCATCCGTGTCGGAGTCACCTAGTGCAG	4580 fluorescence intensity (a.u.)
TCGTTTCATCCTGCTGTCACCACGTAGTAACTCGTTTTCCCGGAGTCACCTAGTGCAG	3390 fluorescence intensity (a.u.)
CTCCAACCACCCCTAGACACGTGTCCAGAGAATCTCTAACCGGAGTCACCTAGTGCAG	9780 fluorescence intensity (a.u.)
GATTATTGAGTCATATTACTATAAACTTGATTGTTATAATCGGAGTCACCTAGTGCAG	3420 fluorescence intensity (a.u.)
CTATGGAACGAAATACTGACGTGTCAGGGATGCATGTGAACGGAGTCACCTAGTGCAG	6700 fluorescence intensity (a.u.)
